From paper PMC8115640

Protein sequences, listed by entry. Tags and fused reporters are not part of them. Lines headed by an entry give the natural chain unless they say otherwise; changes in a name come on top.
UniProt Q8VYS8: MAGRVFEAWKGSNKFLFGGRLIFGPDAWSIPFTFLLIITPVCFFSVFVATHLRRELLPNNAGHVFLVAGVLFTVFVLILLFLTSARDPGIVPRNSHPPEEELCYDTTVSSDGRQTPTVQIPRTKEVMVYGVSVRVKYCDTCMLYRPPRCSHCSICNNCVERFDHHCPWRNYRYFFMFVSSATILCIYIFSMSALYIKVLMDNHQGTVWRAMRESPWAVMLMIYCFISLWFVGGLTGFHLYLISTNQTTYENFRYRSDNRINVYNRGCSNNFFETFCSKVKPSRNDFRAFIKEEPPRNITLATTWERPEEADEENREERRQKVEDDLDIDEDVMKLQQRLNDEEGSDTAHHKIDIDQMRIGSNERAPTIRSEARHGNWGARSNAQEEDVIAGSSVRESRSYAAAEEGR
UniProt Q9M306: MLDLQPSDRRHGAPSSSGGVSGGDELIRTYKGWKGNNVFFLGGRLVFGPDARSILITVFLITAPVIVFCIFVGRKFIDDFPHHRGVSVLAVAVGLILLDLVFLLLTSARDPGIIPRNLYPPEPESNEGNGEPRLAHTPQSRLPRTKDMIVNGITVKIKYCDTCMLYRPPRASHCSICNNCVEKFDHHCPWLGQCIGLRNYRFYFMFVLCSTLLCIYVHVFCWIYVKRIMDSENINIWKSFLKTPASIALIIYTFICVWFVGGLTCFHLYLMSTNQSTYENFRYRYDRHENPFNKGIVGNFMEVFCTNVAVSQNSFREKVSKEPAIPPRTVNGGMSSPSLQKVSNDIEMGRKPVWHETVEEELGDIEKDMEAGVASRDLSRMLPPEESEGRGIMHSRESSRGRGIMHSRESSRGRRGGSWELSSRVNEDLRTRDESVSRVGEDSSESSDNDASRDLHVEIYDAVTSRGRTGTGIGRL

Key:
[1] = biological target: T1, GST-P2K1-KD (P2K1 kinase domain, C-terminal cytoplasmic domain) (Arabidopsis thaliana) (UniProt Q9LSR8); test: pull-down; GST-His pull-down: 5 μg GST and His recombinant proteins with 25 μl Glutathione Resin beads, 25 mM Tris-HCl pH 7.5, 100 mM NaCl, 1 mM DTT, 2 h at 4 °C; eluted with GSH; blots with anti-His and anti-GST; both purified
T1 sequence: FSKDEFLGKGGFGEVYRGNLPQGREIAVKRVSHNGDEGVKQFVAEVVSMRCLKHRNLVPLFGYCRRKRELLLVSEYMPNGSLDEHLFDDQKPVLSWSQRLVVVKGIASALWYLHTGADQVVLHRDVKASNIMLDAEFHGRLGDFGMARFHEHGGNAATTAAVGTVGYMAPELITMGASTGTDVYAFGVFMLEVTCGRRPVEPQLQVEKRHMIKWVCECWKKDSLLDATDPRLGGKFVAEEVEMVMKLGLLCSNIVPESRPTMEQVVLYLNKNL

[2] = biological target: T2, GST-P2K1-KD-1 (kinase inactive form of the P2K1 kinase domain) (Arabidopsis thaliana) (UniProt Q9LSR8); test: as above
T2 sequence: T1 sequence with D229N

[3] = biological target: T3, P2K1-HA (Arabidopsis thaliana) (UniProt Q9LSR8); test: co-IP; constructs transiently co-expressed in Arabidopsis wild-type protoplasts; extract in 50 mM Tris pH 7.5, 150 mM NaCl, 0.5% Triton-X 100; anti-Myc or anti-HA agarose; blots with anti-HA-HRP and anti-Myc-HRP
T3 sequence: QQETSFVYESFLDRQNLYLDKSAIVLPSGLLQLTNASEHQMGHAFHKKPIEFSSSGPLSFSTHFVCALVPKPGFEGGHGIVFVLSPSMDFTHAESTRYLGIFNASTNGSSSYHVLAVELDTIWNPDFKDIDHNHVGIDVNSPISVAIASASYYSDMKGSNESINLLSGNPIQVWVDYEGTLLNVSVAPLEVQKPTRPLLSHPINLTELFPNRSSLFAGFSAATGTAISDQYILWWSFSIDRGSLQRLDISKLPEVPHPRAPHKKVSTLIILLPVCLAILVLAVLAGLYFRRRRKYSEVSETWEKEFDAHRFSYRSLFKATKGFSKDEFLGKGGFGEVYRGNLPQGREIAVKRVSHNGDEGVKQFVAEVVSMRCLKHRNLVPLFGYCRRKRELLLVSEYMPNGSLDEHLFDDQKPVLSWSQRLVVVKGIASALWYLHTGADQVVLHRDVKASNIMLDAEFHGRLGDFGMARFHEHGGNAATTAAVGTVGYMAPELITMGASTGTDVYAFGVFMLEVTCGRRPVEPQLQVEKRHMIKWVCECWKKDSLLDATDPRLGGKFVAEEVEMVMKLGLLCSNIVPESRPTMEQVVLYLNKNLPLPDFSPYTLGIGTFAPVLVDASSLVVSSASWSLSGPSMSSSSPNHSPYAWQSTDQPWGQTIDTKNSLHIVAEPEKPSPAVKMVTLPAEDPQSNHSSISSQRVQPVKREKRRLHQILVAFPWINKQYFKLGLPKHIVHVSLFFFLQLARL

[4] = biological target: PAT9-YFP^C (Arabidopsis thaliana) (UniProt Q8VYS8); test: split reporter; BiFC with split YFP at the C-termini, co-transformed Arabidopsis protoplasts, 23 °C overnight in the dark; FM4-64 as plasma membrane stain
[5] = biological target: T4, P2K1-YFP^N (Arabidopsis thaliana) (UniProt Q9LSR8); test: as above
T4 sequence: T3 sequence

[6] = biological target: T5, P2K1 (DORN1, LecRK-I.9; extracellular ATP receptor), fused to the N-terminal fragment of firefly luciferase (Arabidopsis thaliana) (UniProt Q9LSR8); test: split reporter; split-luciferase complementation imaging in N. benthamiana leaves, Agrobacterium infiltration, 48 h, 1 mM D-luciferin; mock or 500 uM ATPγS added, panels at 15 min and 1 h; empty vectors as controls
T5 sequence: T3 sequence

binding [1]	binding [2]	Substance	other results
binds	binds	His-PAT9-CRD (DHHC-Cysteine rich domain of PAT9) (from UniProt Q8VYS8) (domain or fragment)	
		PAT9-Myc (from UniProt Q8VYS8) (enzyme)	binding [3]: binds
		PAT5-YFP^C (from UniProt Q9M306) (enzyme)	binding [4]: binds; binding [5]: binds
binds	binds	His-PAT5-CRD (DHHC-Cysteine rich domain of PAT5) (from UniProt Q9M306) (domain or fragment)	
binds	binds	His-PAT9-C (C-terminal cytoplasmic domain of PAT9) (from UniProt Q8VYS8) (domain or fragment)	
		PAT5 (protein S-acyltransferase 5), fused to the C-terminal fragment of firefly luciferase (from UniProt Q9M306) (enzyme)	binding [6]: binds
binds	binds	His-PAT5-C (C-terminal cytoplasmic domain of PAT5) (from UniProt Q9M306) (domain or fragment)	
		PAT9-YFP^C (from UniProt Q8VYS8) (enzyme)	binding [5]: binds
		PAT5-Myc (from UniProt Q9M306) (enzyme)	binding [3]: binds

Where a chain is given by its changes, count along the chain named. These are yes or no findings as the source states them, for the method shown. Binding can be weak; no strength is given. For some assays here: Tags and fused reporters may be left off the sequences shown. For some assays here: In cells and extracts the contact can be indirect.
